Measured values: patent US20130280252A1, “METHOD FOR SELECTING PATIENT TO BE GIVEN DRUG FOR TREATING SEPTICEMIA” (MOCHIDA PHARMACEUTICAL CO., LTD., priority 2011, published 2013)

System: cecal ligation and puncture-induced peritonitis rabbit model (rabbit CLP model)
Experiment: Rabbit CLP sepsis model, F1024S-D2(3) administered (Example 1)
Assay type: in vivo
Conditions: 10 mg/kg i.v.
Experimental: A cecal ligation and puncture-induced peritonitis rabbit model (rabbit CLP model; CLP for cecal ligation and puncture) was used as the sepsis model to verify the improvement in efficacy of the therapeutic agent for sepsis when a patient to be administered the therapeutic agent for sepsis (F1024S-D2(3)) was selected using the sCD14-ST concentration as index. The rabbit CLP model was prepared using male rabbits, New Zealand white, each weighing 1.5 kg to 1.99 kg on arrival (Kitayama Labes Co., Ltd.), which had their cecum punctured under anesthesia at two places to make holes each measuring 2 cm to release the cecal contents into the peritoneal cavity according to the method described by Keith A et al (Journal of Surgical Research, Vol. 29, 189 (1980)). In order to stabilize the postsurgical state, all the operated individuals were intravenously administered 60 mg/kg of Shiomarin (Latamoxef Sodium for administration by injection, Shionogi & Co., Ltd.) two hours after surgery.
Blood was sampled at intervals before and after surgery to measure the sCD14-ST concentrations in the blood. The sCD14-ST concentrations in the blood were measured by the method described in Example 3 in WO2009/142303. In this model, the pathology progresses within several hours, resulting in death within 7 to 8 hours after surgery in the earliest cases. Because the measured values of the sCD14-ST concentration in the blood can only be known five to six hours after blood sampling, administering the therapeutic agent only after checking the results is belated. Therefore, the administration timing of the therapeutic agent was set to two hours after surgery, and the blood sCD14-ST concentration at the time when the therapeutic agent was administered was later checked with reference to blood sCD14-ST concentration transition data. Using the respective sCD14-ST concentrations in the blood before surgery of the individuals as normal values, twice the normal values were set as the respective cut-off values. Thus, the survival rates of the cases where the sCD14-ST concentrations in the blood were at least twice the normal values at the time of administration of the therapeutic agent were compared with that of the control cases (see Table 1). The therapeutic agent-administered cases were intravenously administered 10 mg/kg of F1024S-D2(3). The control cases were intravenously administered 10 mg/kg of human immunoglobulin (hIg) in lieu of F1024S-D2(3).
The transition of the sCD14-ST concentration in the blood reflects the severity of sepsis.

B1: F1024S-D2(3): modified form of an anti-CD14 antibody in which the domain 2 of urinary trypsin inhibitor (UTI) is bound to the anti-CD14 antibody; fusion protein (antibody)
heavy: QIQLVQSGPELKKPGESVKISCKASGYTFTDYAMNWVKQAPGNGLKWMGWINTQTGKPTYADDFKQRFVFSLETSASTAYLQINNLNIEDTATYFCTRSTFYYSSYIYGWYFDFWGPGTMVTVSSASTKGPSVFPLAPCSRSTSESTAALGCLVKDYFPEPVTVSWNSGALTSGVHTFPAVLQSSGLYSLSSVVTVPSSSLGTKTYTCNVDHKPSNTKVDKRVESKYGPPGPSGPAPEFLGGPSVFLFPPKPKDTLMISRTPEVTCVVVDVSQEDPEVQFNWYVDGVEVHNAKTKPREEQFNSTYRVVSVLTVLHQDWLNGKEYKCKVSNKGLPSSIEKTISKAKGQPREPQVYTLPPSQEEMTKNQVSLTCLVKGFYPSDIAVEWESNGQPENNYKTTPPVLDSDGSFFLYSRLTVDKSRWQEGNVFSCSVMHEALHNHYTQKSLSLSLGKGSTVAACNLPIVSGPCRAFIKLWAFDAVKGKCVLFPYGGCQGNGNKFDSEKECREYCGVPGDGDEELLRFSN
light: DIVMTQSPTSISISVGERVTMNCKASQNVGSNVDWYQQKTGQSPKLLIYKASNRYTGVPDRFTGSGSGTDFTFTISNMQAVDLAVYYCMQSNTNPPWTFGGGTKLELKRTVAAPSVFIFPPSDEQLKSGTASVVCLLNNFYPREAKVQWKVDNALQSGNSQESVTEQDSKDSTYSLSSTLTLSKADYEKHKVYACEVTHQGLSSPVTKSFNRGEC
In the case of B1, the “Blood sCD14-ST concentration 3 hr after administration” value (shortened to “Blood sCD14-ST concentration 3 hr”) (Severity Especially high) is reported as 521 pg/mL, the “Blood sCD14-ST concentration 3 hr” value (Severity High) is reported as 1156 pg/mL and the “Blood sCD14-ST concentration 6 hr after administration” value (Severity High) is reported as 952 pg/mL. The “Blood sCD14-ST concentration 3 hr” value (Severity Medium) was 497 pg/mL and the “Blood sCD14-ST concentration 6 hr after administration” value (Severity Medium) was 91 pg/mL.
